# PubChem BioAssay AID1224830 – NIAID, 2016
# Assay: 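Genes whose knock-down alters the TNF-alpha reporter response to LPS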 (primary screen)
# System: human THP-1 monocytic leukaemia cells, TNF dual-luciferase reporter clone, PMA-differentiated to macrophage-like cells
# Knock-down reagent: siRNA pool against human genes, 50 nM
# Time to read-out: LPS for 4 h, given about 3 days after siRNA transfection
# Treatment: bacterial LPS (TLR4 ligand), 10 ng/ml
# Detection: 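Ratio of firefly to renilla light, scaled to the plate median and expressed as a robust z-score per replicate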
# Scale: TNF reporter robust z-score: higher = stronger TNF reporter response to LPS
# Active means: 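a well is active when its z-score exceeds 2.8 or falls below -1.5; control wells carry no call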
# The deposit covers about 18,000 reagents; below is a part drawn at random. About 2,900 of them (16%) were called active. 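Calls are made per well; low scores hint the gene aids the LPS response, high scores that it dampens it.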 Repeated entries: four replicate wells of each siRNA pool.
target,TNF reporter robust z-score,outcome
CLCNKA,1.49,inactive
CLCNKA,-0.4,inactive
CLCNKA,-1.61,active
CLCNKA,-0.18,inactive
IL10RA,-0.96,inactive
IL10RA,-0.74,inactive
IL10RA,-0.49,inactive
FAM114A2,-0.08,inactive
FAM114A2,1.06,inactive
FAM114A2,0.8,inactive
FAM114A2,1.78,inactive
CFAP126,1.13,inactive
CFAP126,1.55,inactive
CFAP126,1.14,inactive
CFAP126,0.46,inactive
GDPD1,-1.5,inactive
GDPD1,-1.37,inactive
GDPD1,-1.33,inactive
GCH1,1.27,inactive
GCH1,0.4,inactive
GCH1,-0.11,inactive
GCH1,0.44,inactive
FGF13,-0.36,inactive
FGF13,0.7,inactive
FGF13,0.22,inactive
FGF13,-0.11,inactive
PSRC1,-0.64,inactive
PSRC1,-0.98,inactive
PSRC1,-0.91,inactive
PSRC1,-0.93,inactive
PRORSD1P,1.72,inactive
PRORSD1P,0.64,inactive
PRORSD1P,0.62,inactive
PRORSD1P,0.15,inactive
KDELR1,-1.58,active
KDELR1,-0.85,inactive
KDELR1,-0.04,inactive
KDELR1,-0.16,inactive
NR0B1,-0.96,inactive
NR0B1,0.89,inactive
NR0B1,0.74,inactive
NR0B1,1.55,inactive
MAP9,0.25,inactive
MAP9,0.18,inactive
MAP9,-0.34,inactive
MAP9,-0.25,inactive
MAPK8,-0.98,inactive
MAPK8,-0.73,inactive
MAPK8,-0.6,inactive
MAPK8,0.71,inactive
ZNF792,,inactive
TTC8,-0.07,inactive
TTC8,1.05,inactive
TTC8,-0.03,inactive
TTC8,-0.46,inactive
SLC35C1,-0.47,inactive
SLC35C1,-0.27,inactive
SLC35C1,-0.29,inactive
SLC35C1,0.43,inactive
HDAC6,1.84,inactive
HDAC6,1.85,inactive
HDAC6,1.69,inactive
HDAC6,-0.36,inactive
CCL13,-0.93,inactive
CCL13,-0.55,inactive
CCL13,-1.02,inactive
CCL13,-0.76,inactive
SCLY,-1.12,inactive
SCLY,-0.49,inactive
SCLY,-0.41,inactive
SCLY,-0.11,inactive
C1orf146,-1.04,inactive
C1orf146,-1.12,inactive
C1orf146,-0.8,inactive
C1orf146,-0.87,inactive
LRR1,-0.84,inactive
LRR1,-0.42,inactive
LRR1,-0.47,inactive
LRR1,-0.17,inactive
ERCC8,0.8,inactive
ERCC8,1.67,inactive
ERCC8,1.98,inactive
ERCC8,3.16,active
VPS11,-1.42,inactive
VPS11,3.06,active
VPS11,0.05,inactive
VPS11,1.21,inactive
TNKS,-1.4,inactive
TNKS,-0.37,inactive
TNKS,-0.56,inactive
TNKS,-0.48,inactive
COX20,-0.07,inactive
COX20,-0.82,inactive
COX20,-1.13,inactive
COX20,0.52,inactive
RAB43,2.95,active
RAB43,1.37,inactive
RAB43,0.03,inactive
RAB43,0.34,inactive
KRT2,-1.8,active
KRT2,-1.76,active
KRT2,-1.6,active
NAA60,-0.94,inactive
NAA60,-0.56,inactive
NAA60,-0.58,inactive
NAA60,-0.68,inactive
KCNQ5,-0.16,inactive
KCNQ5,-0.1,inactive
KCNQ5,-0.08,inactive
KCNQ5,0.23,inactive
DCLK1,0.14,inactive
DCLK1,0.55,inactive
DCLK1,-0.52,inactive
DCLK1,0.25,inactive
CCDC185,-0.95,inactive
CCDC185,-1.23,inactive
CCDC185,-0.44,inactive
GDPD3,0.1,inactive
GDPD3,0.89,inactive
GDPD3,0.67,inactive
GDPD3,1.3,inactive
NSD2,-0.61,inactive
NSD2,-0.83,inactive
NSD2,-0.25,inactive
NSD2,0.43,inactive
RGS13,0.41,inactive
RGS13,1.2,inactive
RGS13,0.65,inactive
RGS13,0.77,inactive
GZMM,1.82,inactive
GZMM,0.1,inactive
GZMM,1.1,inactive
GZMM,-0.95,inactive
AHCYL1,-0.71,inactive
AHCYL1,-0.37,inactive
AHCYL1,-0.35,inactive
AHCYL1,-0.6,inactive
ASB8,0.99,inactive
ASB8,-1.63,active
ASB8,-0.09,inactive
ASB8,-0.78,inactive

16 of these entries in another layout.
TNKS → TNF reporter robust z-score = -1.4; outcome = inactive
TNKS → TNF reporter robust z-score = -0.37; outcome = inactive
TNKS → TNF reporter robust z-score = -0.56; outcome = inactive
TNKS → TNF reporter robust z-score = -0.48; outcome = inactive
COX20 → TNF reporter robust z-score = -0.07; outcome = inactive
COX20 → TNF reporter robust z-score = -0.82; outcome = inactive
COX20 → TNF reporter robust z-score = -1.13; outcome = inactive
COX20 → TNF reporter robust z-score = 0.52; outcome = inactive
RAB43 → TNF reporter robust z-score = 2.95; outcome = active
RAB43 → TNF reporter robust z-score = 1.37; outcome = inactive
RAB43 → TNF reporter robust z-score = 0.03; outcome = inactive
RAB43 → TNF reporter robust z-score = 0.34; outcome = inactive
KRT2 → TNF reporter robust z-score = -1.8; outcome = active
KRT2 → TNF reporter robust z-score = -1.76; outcome = active
KRT2 → TNF reporter robust z-score = -1.6; outcome = active
NAA60 → TNF reporter robust z-score = -0.94; outcome = inactive
